# Assay results published in patent US20220296563A1, “ACYLATED ACTIVE AGENTS AND METHODS OF THEIR USE FOR THE TREATMENT OF METABOLIC DISORDERS AND NONALCOHOLIC FATTY LIVER DISEASE” (Flagship Pioneering Innovations V, Inc., priority 2019, published 2022).
# Entries after “also recorded” stand apart in the source; their conditions may differ. At least one structure is not confirmed: it was looked up by name or label, or the drawing left a doubt.
# System: C57BL/6 mice
# Assay: In vivo evaluation in C57BL/6 mice fed a high-fat diet
# Experimental: Animals were allowed free access to food and drinking water for the entire study. Animals were weighed on a regular basis, and food and drinking water consumption monitored. Plasma and stool samples were collected at the beginning of the study and 42 days into the study. Additional blood was drawn from fasted mice 58 days into the study. Insulin tolerance tests were performed 72 or 73 days into the study. Following an approximate 4 h fast, 0.5 Units/kg insulin was administered intraperitoneally. Blood was collected pre-insulin challenge (t=0) and at t=15, 30, 60, 90, and 120 min following insulin challenge. Oral glucose tolerance tests were performed 79 or 80 days into the study. Following an approximate 4 h fast, 2 g/kg glucose was administered by oral gavage. Blood was collected pre-insulin challenge (t=0) and at t=15, 30, 60, 90, and 120 min following glucose challenge. At the end of the study, body weight, food consumption, blood glucose, serum ALT levels, serum AST levels, serum cholesterol (total cholesterol. HDL, and LDL levels), serum triglycerides levels, liver triglyceride levels, liver cholesterol levels, liver weight, subcutaneous were measured in all mice.
# [1] = end of the study, vs. HFD cohort
smiles,measurement,setting,value
"CC(=O)Oc1ccc(OC(C)=O)c(C(=O)O)c1 [compound 3, diacetyl gentisic acid]",insulin tolerance (insulin tolerance test),"day 72 or 73, 0.5 Units/kg insulin intraperitoneally, vs. HFD only cohort",exceed that of animals in the HFD only cohort
same,glucose tolerance (oral glucose tolerance test),"day 79 or 80, 2 g/kg glucose by oral gavage, vs. HFD only cohort",exceed that of animals in the HFD only cohort
same,serum LDL levels (non-fasted),[1],significantly improved
same,serum total cholesterol levels (non-fasted),[1],significantly improved
same,fat accumulation (subcutaneous and epididymal fat pad weights),"end of the study, vs. HFD control cohort, p<0.05",significantly less (p<0.05) fat accumulation
same,liver function (serum ALT and AST levels),"end of the study, vs. HFD control group",significantly improved liver function
same,food consumption (appetite),"high-fat diet, 84 days",without significant appetite suppression
same,body weight,"high-fat diet, vs. HFD control group, up to day 84",statistically significant reduction in the body weight; also recorded: induce weight loss; also recorded: underwent weight loss; also recorded: indistinguishable from those in the LFD cohort
